# Literature values, collected in US12259378B2, “Dynamic clamps and methods of use thereof” (priority 2018, dated 2025).
# For at least one compound, name, drawing or mass did not settle the structure.
# System: patients with R853Q mutation
# Conditions: human, in vivo; cited from earlier work
smiles,measurement,value
"CCC1(c2ccccc2)C(=O)NC(=O)NC1=O [PB, phenobarbital]",Other AED response,Benefit
